Patent publication US10933039B2, “Coolant mixtures” (Symrise AG, priority 2016, dated 2021)
Some results come without the dose or concentration used.

Experiment: Sensory evaluation of coolant mixtures by a panel of 5 trained testers (cooling effect and flavor profile) in a standard chewy candy preparation
Assay type: in vivo
Settings: panel score (5)=very true to (0)=largely not true; mean values of 5 trained testers; unsweetened, non-aromatized standard chewy candy preparation
Protocol: The cooling effect and flavor profile of various coolant mixtures were evaluated by a panel consisting of 5 trained testers. For this purpose, the mixtures were incorporated into an unsweetened and non-aromatized standard chewy candy preparation. The evaluation was reported according to the notation (5)=very true to (0)=largely not true. Data are mean values.

SMILES | Bitter taste | Pungent taste | Stinging taste
CC(C)C=O [C1, Isobutyraldehyde] | 2.0 | 4.0 | 4.0
CC(C)CC=O [C2, Isovaleraldehyde] | 2.0 | 4.0 | 4.0
CC(C)C(=O)O [C3, Isobutyric acid] | 2.0 | 3.9 | 4.0
CC(C)CC(=O)O [C4, Isovaleric acid] | 1.8 | 3.8 | 4.0
